Reference: PubChem BioAssay AID1259405 (NCATS, 2018)
Shown is one part, drawn at random, of about 50,000 reagents. Of all reagents, about 4,000 (8%) got an active call. 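Mouse siRNA library applied to hamster cells; one well for each siRNA.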 Reagents against one gene are numbered here. Reagent sequences are not shown.

Test: 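Knock-downs that lift recombinant protein yield in hamster ovary cells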 (primary screen)
Cell system: Chinese hamster CHO-K1 ovary cells with stable secreted eGFP expression
Reagent: single siRNA against mouse genes, 0.8 pmol siRNA per well (2 µl of 400 nM stock)
Duration: 3 days
Measured: 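Per-well intracellular GFP measured by laser scanning cytometry, plus viability from ATP luminescence, each relative to plate median of non-targeting control wells, in %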
Scale: GFP, % of control: higher = more GFP per well, higher productivity; viability (ATP), % of control: higher = more viable cells (more ATP)
Active means: 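a knock-down is called active if GFP reaches 120% or more of non-targeting control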

gene	siRNA no.	GFP, % of control	viability (ATP), % of control	activity call
Lhx2 (GeneID 16870)	1	59	44.1	inactive
Lhx2 (GeneID 16870)	2	133	94.9	active
Lhx2 (GeneID 16870)	3	69.7	77.7	inactive
Sh3bgrl (GeneID 56726)	1	114	115	inactive
Sh3bgrl (GeneID 56726)	2	86.3	69.2	inactive
Sh3bgrl (GeneID 56726)	3	80.1	82.8	inactive
Efl1 (GeneID 101592)	1	72.9	72.9	inactive
Efl1 (GeneID 101592)	2	51.9	46	inactive
Efl1 (GeneID 101592)	3	88.6	81.8	inactive
Fcho1 (GeneID 74015)	1	44.4	67	inactive
Fcho1 (GeneID 74015)	2	76.7	58.4	inactive
Fcho1 (GeneID 74015)	3	52.3	74.3	inactive
Zfp93 (GeneID 22755)	1	54.6	62.8	inactive
Zfp93 (GeneID 22755)	2	77.5	90.6	inactive
Zfp93 (GeneID 22755)	3	78	96.8	inactive
Ubxn2a (GeneID 217379)	1	46.7	59.2	inactive
Ubxn2a (GeneID 217379)	2	64	84.6	inactive
Ubxn2a (GeneID 217379)	3	85.2	97.8	inactive
Pigf (GeneID 18701)	1	76.1	80.3	inactive
Pigf (GeneID 18701)	2	109	104	inactive
Pigf (GeneID 18701)	3	82.7	92.7	inactive
Tmem94 (GeneID 71947)	1	86.8	98.4	inactive
Tmem94 (GeneID 71947)	2	108	83.5	inactive
Tmem94 (GeneID 71947)	3	35.2	36.4	inactive
Or51r1 (GeneID 259108)	1	101	85.8	inactive
Or51r1 (GeneID 259108)	2	33.2	58	inactive
Or51r1 (GeneID 259108)	3	181	47.3	active
Them6 (GeneID 223626)	1	47.9	52.5	inactive
Them6 (GeneID 223626)	2	29.7	43	inactive
Them6 (GeneID 223626)	3	44.7	49.4	inactive
Pate14 (GeneID 235973)	1	78.3	78.7	inactive
Pate14 (GeneID 235973)	2	77.7	76.9	inactive
Pate14 (GeneID 235973)	3	129	81.8	active
Rprm (GeneID 67874)	1	67.1	64.4	inactive
Rprm (GeneID 67874)	2	96	87.9	inactive
Rprm (GeneID 67874)	3	78.3	72.5	inactive
Dema1 (GeneID 67358)	1	98.8	107	inactive
Dema1 (GeneID 67358)	2	162	65.6	active
Dema1 (GeneID 67358)	3	84.8	66.1	inactive
Nol4 (GeneID 319211)	1	106	82.3	inactive
Nol4 (GeneID 319211)	2	61.7	27.3	inactive
Nol4 (GeneID 319211)	3	75.1	63.3	inactive
Tmem179b (GeneID 67706)	1	112	47.7	inactive
Tmem179b (GeneID 67706)	2	83.4	43.4	inactive
Tmem179b (GeneID 67706)	3	67.9	83.9	inactive
Rce1 (GeneID 19671)	1	67.8	60.1	inactive
Rce1 (GeneID 19671)	2	87	42.7	inactive
Rce1 (GeneID 19671)	3	87.2	95.6	inactive
Ppox (GeneID 19044)	1	109	84.7	inactive
Ppox (GeneID 19044)	2	71.6	49.9	inactive
Ppox (GeneID 19044)	3	127	89.5	active
Prmt5 (GeneID 27374)	1	62.6	80.6	inactive
Prmt5 (GeneID 27374)	2	101	92.9	inactive
Prmt5 (GeneID 27374)	3	97.4	114	inactive
Ptgr1 (GeneID 67103)	1	85.6	94.7	inactive
Ptgr1 (GeneID 67103)	2	77.2	77.2	inactive
Ptgr1 (GeneID 67103)	3	64.8	89.5	inactive
Strn (GeneID 268980)	1	44.1	44.3	inactive
Strn (GeneID 268980)	2	108	110	inactive
Strn (GeneID 268980)	3	122	101	active
Capzb (GeneID 12345)	1	84.8	103	inactive
Capzb (GeneID 12345)	2	69.1	71.8	inactive
Capzb (GeneID 12345)	3	92.1	66.6	inactive
Sqor (GeneID 59010)	1	107	84.8	inactive
Sqor (GeneID 59010)	2	81.2	60.3	inactive
Sqor (GeneID 59010)	3	59	81.9	inactive

Part of the list above, set out differently.
Ubxn2a (GeneID 217379) #3
- GFP, % of control: 85.2
- viability (ATP), % of control: 97.8
- activity call: inactive

Pigf (GeneID 18701) #1
- GFP, % of control: 76.1
- viability (ATP), % of control: 80.3
- activity call: inactive

Pigf (GeneID 18701) #2
- GFP, % of control: 109
- viability (ATP), % of control: 104
- activity call: inactive

Pigf (GeneID 18701) #3
- GFP, % of control: 82.7
- viability (ATP), % of control: 92.7
- activity call: inactive

Tmem94 (GeneID 71947) #1
- GFP, % of control: 86.8
- viability (ATP), % of control: 98.4
- activity call: inactive

Tmem94 (GeneID 71947) #2
- GFP, % of control: 108
- viability (ATP), % of control: 83.5
- activity call: inactive

Tmem94 (GeneID 71947) #3
- GFP, % of control: 35.2
- viability (ATP), % of control: 36.4
- activity call: inactive

Or51r1 (GeneID 259108) #1
- GFP, % of control: 101
- viability (ATP), % of control: 85.8
- activity call: inactive

Or51r1 (GeneID 259108) #2
- GFP, % of control: 33.2
- viability (ATP), % of control: 58
- activity call: inactive

Or51r1 (GeneID 259108) #3
- GFP, % of control: 181
- viability (ATP), % of control: 47.3
- activity call: active

Them6 (GeneID 223626) #1
- GFP, % of control: 47.9
- viability (ATP), % of control: 52.5
- activity call: inactive

Them6 (GeneID 223626) #2
- GFP, % of control: 29.7
- viability (ATP), % of control: 43
- activity call: inactive

Them6 (GeneID 223626) #3
- GFP, % of control: 44.7
- viability (ATP), % of control: 49.4
- activity call: inactive

Pate14 (GeneID 235973) #1
- GFP, % of control: 78.3
- viability (ATP), % of control: 78.7
- activity call: inactive

Pate14 (GeneID 235973) #2
- GFP, % of control: 77.7
- viability (ATP), % of control: 76.9
- activity call: inactive

Additional results follow:
gene	siRNA no.	GFP, % of control	viability (ATP), % of control	activity call
Des (GeneID 13346)	1	100	74.8	inactive
Des (GeneID 13346)	2	65.7	73.6	inactive
Des (GeneID 13346)	3	71.8	91.1	inactive
Sox1 (GeneID 20664)	1	97.3	80.8	inactive
Sox1 (GeneID 20664)	2	93.7	71.3	inactive
Sox1 (GeneID 20664)	3	48.9	96.9	inactive
Or52s1b (GeneID 258139)	1	132	94	active
Or52s1b (GeneID 258139)	2	62.1	53.9	inactive
Or52s1b (GeneID 258139)	3	59.1	77.8	inactive
Agbl3 (GeneID 76223)	1	68.3	62.1	inactive
Agbl3 (GeneID 76223)	2	28.8	36.7	inactive
Agbl3 (GeneID 76223)	3	60.1	59.3	inactive
Foxi1 (GeneID 14233)	1	82.2	87.9	inactive
Foxi1 (GeneID 14233)	2	53.7	53.8	inactive
Or8s10 (GeneID 258449)	1	106	74	inactive
Or8s10 (GeneID 258449)	2	93.9	60.2	inactive
Or8s10 (GeneID 258449)	3	50.1	25.7	inactive
Atp13a1 (GeneID 170759)	1	84.1	105	inactive
Atp13a1 (GeneID 170759)	2	78.2	96.3	inactive
Atp13a1 (GeneID 170759)	3	123	94.8	active
Serping1 (GeneID 12258)	1	93.7	107	inactive
Serping1 (GeneID 12258)	2	105	89.9	inactive
Serping1 (GeneID 12258)	3	45.9	32.7	inactive
Mvb12b (GeneID 72543)	1	45.8	49.4	inactive
Mvb12b (GeneID 72543)	2	55.7	64.7	inactive
Mvb12b (GeneID 72543)	3	86.5	121	inactive
Eea1 (GeneID 216238)	1	43.7	47.6	inactive
Eea1 (GeneID 216238)	2	101	69.3	inactive
Eea1 (GeneID 216238)	3	99.3	77.7	inactive
Cd28 (GeneID 12487)	1	117	79.1	inactive
Cd28 (GeneID 12487)	2	55.7	48	inactive
Cd28 (GeneID 12487)	3	83.7	58.5	inactive
Bank1 (GeneID 242248)	1	76.8	50.6	inactive
Bank1 (GeneID 242248)	2	72	64.5	inactive
Bank1 (GeneID 242248)	3	102	93.9	inactive
Tmem150a (GeneID 232086)	1	67.2	71	inactive
Tmem150a (GeneID 232086)	2	89.8	116	inactive
Tmem150a (GeneID 232086)	3	64.6	89	inactive
Cables2 (GeneID 252966)	1	92.6	80.4	inactive
Cables2 (GeneID 252966)	2	108	95.5	inactive
Cables2 (GeneID 252966)	3	82	96.6	inactive
